Laboratory results published in PMC8880385 (Pharmaceuticals, 2022).

Columns and labels:
[1] = in vitro; settings: dog, MDCK-MDR1
Protocol: Permeability assays were conducted using 5 µM of each test compound with digoxin as a control. […] electrical resistance was used to verify the integrity of the MDCK-MDR1 monolayer. After compound addition, plates were incubated at 37 °C with 5% CO2 for 1 h. Samples were analyzed by LC–MS/MS and net flux ratio was calculated using basal-to-apical and apical-to-basal permeability.

[2] = tested on: O. volvulus pre-adult L5; experiment: Ov L5 viability by endpoint MTT assay; type: cell-based, Onchocerca volvulus; settings: 1 µM
Protocol: Briefly, Ov L3 larvae were cultured to the pre-adult/L5 stage in vitro as described by Voronin et al., 2019 [45]. Once larvae reached the L5 stage (after at least 70 days in culture), 8–10 Ov L5 were moved to new transwell inserts in a 24-well plate containing 0.5 mL Ov L4-CMS media seeded with a 3 × 10^4/well Human Umbilical Vein Endothelial Cells (HUVEC) monolayer. Duplicate wells were treated with 1 and/or 10 µM of compound. Ov L5 were exposed to compounds for 14 days (exchanged 50% of media with fresh compound every two days) and then cultured with new media without compound, exchanging 50% of media every 2–3 days, up to day 36. Control Ov L5 were treated with 0.05% DMSO. Concentrations were chosen based on activity in the B. pahangi female motility assay. Motility was assessed visually and ranked on a 0–100% scale every 2–3 days over the course of the assay. At the end of the motility assay, Ov L5 viability was measured by 3-(4,5-dimethylthiazol-2-yl)-2,5-diphenyltetrazolium bromide (MTT) assay. Ov L5 were incubated with 0.1% MTT in PBS at 37 °C for 1 h then visually inspected for blue coloration indicating MTT reduction. Worms were considered dead if <50% of the worm was stained blue, and worms were considered alive if >50% of the worm was stained blue.

Cc1cc(/C=C/c2ccc3cc(N(C)C)ccc3[n+]2C)c(C)n1-c1ccccc1 [PVP, pyrvinium pamoate, reference compound]
Papp A→B [1]: < 0.7 nm/s
Papp B→A [1]: 66 nm/s
recovery [1]: 69%
O. volvulus L5 % inhibition of viability Day 37 (MTT assay) [2]: 100%
